Experimental data reported in patent US10844049B2, “GLP-1R agonists and uses thereof” (QILU REGOR THERAPEUTICS INC., priority 2018, dated 2020).
Some entries share one result that the patent states for a list of compounds.

Protein sequences, listed by entry. Tags and fused reporters are not part of them. Residues count along the entry.
UniProt P43220, 24-463: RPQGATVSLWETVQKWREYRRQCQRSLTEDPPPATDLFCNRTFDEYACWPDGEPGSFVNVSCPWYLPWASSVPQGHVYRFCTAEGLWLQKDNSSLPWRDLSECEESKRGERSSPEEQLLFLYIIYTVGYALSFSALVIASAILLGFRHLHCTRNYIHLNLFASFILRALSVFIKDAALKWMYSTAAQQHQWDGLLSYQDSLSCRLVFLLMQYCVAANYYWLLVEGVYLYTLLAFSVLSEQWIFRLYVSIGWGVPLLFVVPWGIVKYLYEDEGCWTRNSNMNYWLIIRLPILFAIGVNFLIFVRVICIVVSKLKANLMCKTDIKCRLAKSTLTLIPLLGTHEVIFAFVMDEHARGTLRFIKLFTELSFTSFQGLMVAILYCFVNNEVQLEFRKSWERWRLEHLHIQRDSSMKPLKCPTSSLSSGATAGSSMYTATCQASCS

Biological target: GLP1R (Homo sapiens, UniProt P43220)
Experiment: NanoBit GLP1R/β-Arrestin2 interaction assay in transfected HEK293T cells
Format: cell-based
Set-up: expressed in transfected cells; host or cells: HEK293T, transient transfection with Lipofectamine2000
Conditions: 3-minute and 5-minute readouts, highest concentrations tested

SMILES: N#Cc1ccc(COc2nccc(N3CCN(Cc4nc5ccc(C(=O)O)cc5n4C[C@@H]4CCO4)CC3)n2)c(F)c1 [Compound 10, (S)-2-((4-(2-((4-cyano-2-fluorobenzyl)oxy)pyrimidin-4-yl)piperazin-1-yl)methyl)-1-(oxetan-2-ylmethyl)-1H-benzo[d]imidazole-6-carboxylic acid]
- Bmax, maximum relative effect vs GLP-1 (7-37): no more than 40%

SMILES: O=C(O)c1ccc2nc(CN3CC=C(c4ccnc(OCc5ccc(Cl)cc5F)n4)CC3)n(C[C@@H]3CCO3)c2c1 [Compound 35, (S)-2-((4-(2-((4-chloro-2-fluorobenzyl)oxy)pyrimidin-4-yl)-3,6-dihydropyridin-1(2H)-yl)methyl)-1-(oxetan-2-ylmethyl)-1H-benzo[d]imidazole-6-carboxylic add]
- Bmax, maximum relative effect vs GLP-1 (7-37): no more than 40%
